Most values lie at the floor of the assay. Slopes are relative: functional sequences can read slightly below zero.
system: Saccharomyces cerevisiae PS128 hsf1 delta, HSF1(1-493) fusion; experiment: growth estimate (transactivation domain function in HSF1 fusion, heat-shock survival) (a.u. (slope of normalised read count over time)); higher = stronger growth at 37°C, i.e. more transactivation activity; conditions: library: random library

Q: How did the growth estimate turn out when STLGLLPTLDPRMVPALDAI was run?
A: < -0.25

Q: With STLGRGKL as the substance, how does the growth estimate read?
A: < -0.25

Q: Which growth estimate does the source give for STLRALGVSRAVQMQFRPIV here?
A: < -0.25

Q: Which growth estimate does the source give for STLRHLRS here?
A: < -0.25

Q: STMGQHSSLDDKTEPRESRM was tested. Which growth estimate did it give?
A: < -0.25

Q: How did the growth estimate turn out when STNGEG was run?
A: < -0.25

Q: Which growth estimate does the source give for STQ here?
A: < -0.25

Q: STQTSPDSVILAYAL was tested. Which growth estimate did it give?
A: < -0.25

Q: For STRAIFK, which growth estimate is on record?
A: < -0.25

Q: STRCAARVDYTVIHLLCGLS was tested. Which growth estimate did it give?
A: < -0.25

Q: How did the growth estimate turn out when STRESHRDIYRAVKSCLVSE was run?
A: < -0.25

Q: STRIQVATLTRESPSY was tested. Which growth estimate did it give?
A: < -0.25

Q: For STRITPWIAGANIDPLEGLE, which growth estimate is on record?
A: < -0.25

Q: With STRRGIRRRSWFR as the substance, how does the growth estimate read?
A: < -0.25

Q: Which growth estimate does the source give for STSGPGGWRAITKRGMHRSQ here?
A: < -0.25

Q: With STSGQTNLHSDIA as the substance, how does the growth estimate read?
A: -0.246

Q: With STSK as the substance, how does the growth estimate read?
A: < -0.25

Q: STSLRDPRFAGQLSDMFRLA was tested. Which growth estimate did it give?
A: < -0.25

Q: With STSPQGGLRPQYNGHQH as the substance, how does the growth estimate read?
A: < -0.25

Q: How did the growth estimate turn out when STSQLVRLRS was run?
A: < -0.25

Q: With STTRHGML as the substance, how does the growth estimate read?
A: < -0.25

Q: For STVEFEFRHLLCPAQMGS, which growth estimate is on record?
A: < -0.25

Q: STVGKF was tested. Which growth estimate did it give?
A: < -0.25

Q: Which growth estimate does the source give for STVIG here?
A: < -0.25

Q: Which growth estimate does the source give for STVSLKCALDPS here?
A: < -0.25

Q: For STVTDLNRFGILNTRLVLAQ, which growth estimate is on record?
A: < -0.25

Q: STVVVDSSVVTRPGPRVLA was tested. Which growth estimate did it give?
A: < -0.25

Q: With STYTGLESWRFDNQGQLLAE as the substance, how does the growth estimate read?
A: < -0.25

Q: Which growth estimate does the source give for STYYVQKLKGGAGSSGGLVR here?
A: < -0.25

Q: How did the growth estimate turn out when SVADPVDVGDFLARELDCHW was run?
A: -0.142

Q: For SVAG, which growth estimate is on record?
A: < -0.25

Q: With SVAGILKASCYEIIVARLRG as the substance, how does the growth estimate read?
A: < -0.25

Q: With SVARIFSMI as the substance, how does the growth estimate read?
A: < -0.25

Q: For SVCCRSLRFPAGPDGGISRQ, which growth estimate is on record?
A: < -0.25

Q: With SVCDQLSNLTDTRLAVHCSA as the substance, how does the growth estimate read?
A: < -0.25

Q: Which growth estimate does the source give for SVCFPGACLHRVR here?
A: < -0.25

Q: With SVCGRRVYRPRAHRCVK as the substance, how does the growth estimate read?
A: < -0.25

Q: SVCLGGRNGWARTRVGKERG was tested. Which growth estimate did it give?
A: < -0.25

Q: How did the growth estimate turn out when SVCLVRVREVEVVMIGILPV was run?
A: < -0.25

Q: How did the growth estimate turn out when SVD was run?
A: < -0.25

Q: SVDAVHPGYT was tested. Which growth estimate did it give?
A: < -0.25

Q: SVDLRTILVKCANL was tested. Which growth estimate did it give?
A: < -0.25

Q: For SVE, which growth estimate is on record?
A: < -0.25

Q: Which growth estimate does the source give for SVEARGRTCPVGTR here?
A: < -0.25

Q: With SVEDIVCDHTAD as the substance, how does the growth estimate read?
A: < -0.25

Q: Which growth estimate does the source give for SVEGCLYNVRSTTLTTPQAA here?
A: < -0.25

Q: For SVERSAHGIGD, which growth estimate is on record?
A: < -0.25

Q: How did the growth estimate turn out when SVESRGRLCLRELCRLNARK was run?
A: < -0.25

Q: SVESSLSPRPVRGG was tested. Which growth estimate did it give?
A: < -0.25

Q: How did the growth estimate turn out when SVFRQRSPW was run?
A: < -0.25

Q: How did the growth estimate turn out when SVFSTGLH was run?
A: < -0.25

Q: How did the growth estimate turn out when SVFYTSWILDIY was run?
A: < -0.25

Q: With SVGHSNPGHPPMCVPTFLGP as the substance, how does the growth estimate read?
A: < -0.25

Q: How did the growth estimate turn out when SVGLRWRRQRIGSLVGMAVT was run?
A: < -0.25

Q: SVGNKLSVMRIMVSGFRYSN was tested. Which growth estimate did it give?
A: < -0.25

Q: Which growth estimate does the source give for SVGPFTGDFVIPMNNQQYYV here?
A: < -0.25

Q: For SVGTLSPVHSGVGPGYSYSA, which growth estimate is on record?
A: < -0.25

Q: SVGTRYAGESRTAHHKCSFS was tested. Which growth estimate did it give?
A: < -0.25

Q: With SVGVHEVRDETGSQAHRRWG as the substance, how does the growth estimate read?
A: < -0.25

Q: For SVHDKPGQMSVVCWALRTVI, which growth estimate is on record?
A: < -0.25

Q: How did the growth estimate turn out when SVHFQPPRYRTTVRTGQMRR was run?
A: < -0.25

Q: With SVHL as the substance, how does the growth estimate read?
A: < -0.25

Q: With SVHLSVTDYSPSDKAGRQHS as the substance, how does the growth estimate read?
A: < -0.25

Q: How did the growth estimate turn out when SVHMG was run?
A: < -0.25

Q: How did the growth estimate turn out when SVHPSPIILPGQ was run?
A: < -0.25

Q: With SVIMPRWITKADTNGARGRR as the substance, how does the growth estimate read?
A: < -0.25

Q: For SVIRLFPQGVTDFGWNRGTR, which growth estimate is on record?
A: < -0.25

Q: For SVIVPRPNYRES, which growth estimate is on record?
A: < -0.25

Q: How did the growth estimate turn out when SVKGVS was run?
A: < -0.25

Q: SVL was tested. Which growth estimate did it give?
A: < -0.25

Q: Which growth estimate does the source give for SVLKVVCS here?
A: < -0.25

Q: For SVLRE, which growth estimate is on record?
A: < -0.25

Q: For SVLRQVSVDGESSVTGSCHV, which growth estimate is on record?
A: < -0.25

Q: With SVLTLESLQLRQ as the substance, how does the growth estimate read?
A: < -0.25

Q: Which growth estimate does the source give for SVLTVRVGRQNGSLKGEAIH here?
A: < -0.25

Q: With SVLV as the substance, how does the growth estimate read?
A: < -0.25

Q: With SVLVYISVFIKGRNPFSARV as the substance, how does the growth estimate read?
A: < -0.25

Q: For SVNGRCNHLRWSLSSGRVD, which growth estimate is on record?
A: < -0.25

Q: Which growth estimate does the source give for SVNIVTRGASRQTFG here?
A: < -0.25

Q: SVNSTLSL was tested. Which growth estimate did it give?
A: < -0.25

Q: For SVNVSG, which growth estimate is on record?
A: < -0.25

Q: How did the growth estimate turn out when SVPEKVQQDEHRLL was run?
A: < -0.25

Q: How did the growth estimate turn out when SVPLYNWVVVW was run?
A: -0.203

Q: How did the growth estimate turn out when SVPTG was run?
A: < -0.25

Q: How did the growth estimate turn out when SVPTGVAVTPAAQRLDDPAF was run?
A: < -0.25

Q: Which growth estimate does the source give for SVPYAVARGRSTWVLYC here?
A: < -0.25

Q: How did the growth estimate turn out when SVQERVVGYDGPFKRGERRF was run?
A: < -0.25

Q: With SVQWYSA as the substance, how does the growth estimate read?
A: < -0.25

Q: How did the growth estimate turn out when SVREITGVWTDLKGNGCSGG was run?
A: < -0.25

Q: For SVRGGRWDKTSYVIAKWYRM, which growth estimate is on record?
A: < -0.25

Q: How did the growth estimate turn out when SVRGLRETVRRSISKKAIRR was run?
A: < -0.25

Q: Which growth estimate does the source give for SVRILREAPVPKGLLL here?
A: < -0.25

Q: Which growth estimate does the source give for SVRIPGLSAYRVVDLLDVAP here?
A: < -0.25

Q: For SVRLGS, which growth estimate is on record?
A: < -0.25

Q: How did the growth estimate turn out when SVRSKQH was run?
A: < -0.25

Q: SVRVALLRLSGRDILRRAEN was tested. Which growth estimate did it give?
A: < -0.25

Q: SVSAVTMKIIRAMDA was tested. Which growth estimate did it give?
A: < -0.25

Q: For SVSNVGPDRWAVVREPTIRN, which growth estimate is on record?
A: < -0.25

Q: SVSP was tested. Which growth estimate did it give?
A: < -0.25

Q: Which growth estimate does the source give for SVSPPGRYSQPGSAEIILHR here?
A: -0.25

Q: Which growth estimate does the source give for SVSR here?
A: < -0.25

Q: With SVSVTSFPGSN as the substance, how does the growth estimate read?
A: < -0.25

Source: the supplement of paper PMC5949888
